Test results published in the supplement of paper PMC8728848.
This is one part of the list.

Key:
Experiment in all cases: glycan array binding signal (z-score within array); higher = stronger binding
Settings in all cases: glycan notation: IUPAC condensed, linker removed
[1] = target: Neu5Ac(a2-6)Gal(b1-3)GlcNAc(b1-3)[Gal(b1-4)GlcNAc(b1-6)]Gal(b1-4)Glc
How it was run: (§1)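 Negative Z-scores can be read as non-binding. The Z-score is calculated within each array and then averaged across arrays of one protein sequence at different concentrations or buffers and across linkers. Arrays, 3228 in all, were curated from the Consortium for Functional Glycomics database and kept only where the protein sequence was available.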

Neu5Ac(a2-6)Gal(b1-4)Glc = target: Neu5Ac(a2-6)Gal(b1-4)Glc
How it was run: as §1

[2] = target: Neu5Ac(a2-6)Gal(b1-4)GlcNAc
How it was run: as §1

[3] = target: Neu5Ac(a2-6)Gal(b1-4)GlcNAc(b1-2)Man
How it was run: as §1

[4] = target: Neu5Ac(a2-6)Gal(b1-4)GlcNAc(b1-2)Man(a1-3)Man(b1-4)GlcNAc(b1-4)GlcNAc
How it was run: as §1

[5] = target: Neu5Ac(a2-6)Gal(b1-4)GlcNAc(b1-2)Man(a1-3)[Gal(b1-4)GlcNAc(b1-2)Man(a1-6)]Man(b1-4)GlcNAc(b1-4)GlcNAc
How it was run: as §1

[6] = target: Neu5Ac(a2-6)Gal(b1-4)GlcNAc(b1-2)Man(a1-3)[GlcNAc(b1-2)Man(a1-6)]Man(b1-4)GlcNAc(b1-4)GlcNAc
How it was run: as §1

[7] = target: Neu5Ac(a2-6)Gal(b1-4)GlcNAc(b1-2)Man(a1-3)[GlcNAc(b1-4)][Neu5Ac(a2-6)Gal(b1-4)GlcNAc(b1-2)Man(a1-6)]Man(b1-4)GlcNAc(b1-4)GlcNAc
How it was run: as §1

[8] = target: Neu5Ac(a2-6)Gal(b1-4)GlcNAc(b1-2)Man(a1-3)[Man(a1-6)]Man(b1-4)GlcNAc(b1-4)GlcNAc
How it was run: as §1

[9] = target: Neu5Ac(a2-6)Gal(b1-4)GlcNAc(b1-2)Man(a1-3)[Neu5Ac(a2-3)Gal(b1-4)GlcNAc(b1-2)Man(a1-6)]Man(b1-4)GlcNAc(b1-4)GlcNAc
How it was run: as §1

[10] = target: Neu5Ac(a2-6)Gal(b1-4)GlcNAc(b1-2)Man(a1-3)[Neu5Ac(a2-6)Gal(b1-4)GlcNAc(b1-2)Man(a1-6)]Man(b1-4)GlcNAc(b1-4)GlcNAc
How it was run: as §1

[11] = target: Neu5Ac(a2-6)Gal(b1-4)GlcNAc(b1-2)Man(a1-3)[Neu5Ac(a2-6)Gal(b1-4)GlcNAc(b1-2)Man(a1-6)]Man(b1-4)GlcNAc(b1-4)[Fuc(a1-6)]GlcNAc
How it was run: as §1

[12] = target: Neu5Ac(a2-6)Gal(b1-4)GlcNAc(b1-2)Man(a1-6)Man(b1-4)GlcNAc(b1-4)GlcNAc
How it was run: as §1

[13] = target: Neu5Ac(a2-6)Gal(b1-4)GlcNAc(b1-2)Man(a1-6)[Gal(b1-4)GlcNAc(b1-2)Man(a1-3)]Man(b1-4)GlcNAc(b1-4)GlcNAc
How it was run: as §1

[14] = target: Neu5Ac(a2-6)Gal(b1-4)GlcNAc(b1-2)Man(a1-6)[GlcNAc(b1-2)Man(a1-3)]Man(b1-4)GlcNAc(b1-4)GlcNAc
How it was run: as §1

[15] = target: Neu5Ac(a2-6)Gal(b1-4)GlcNAc(b1-2)Man(a1-6)[Man(a1-3)]Man(b1-4)GlcNAc(b1-4)GlcNAc
How it was run: as §1

[16] = target: Neu5Ac(a2-6)Gal(b1-4)GlcNAc(b1-2)[Neu5Ac(a2-6)Gal(b1-4)GlcNAc(b1-4)]Man(a1-3)[GlcNAc(b1-4)][Neu5Ac(a2-6)Gal(b1-4)GlcNAc(b1-2)[Neu5Ac(a2-6)Gal(b1-4)GlcNAc(b1-6)]Man(a1-6)]Man(b1-4)GlcNAc(b1-4)GlcNAc
How it was run: as §1

[17] = target: Neu5Ac(a2-6)Gal(b1-4)GlcNAc(b1-2)[Neu5Ac(a2-6)Gal(b1-4)GlcNAc(b1-4)]Man(a1-3)[GlcNAc(b1-4)][Neu5Ac(a2-6)Gal(b1-4)GlcNAc(b1-4)Man(a1-6)]Man(b1-4)GlcNAc(b1-4)GlcNAc
How it was run: as §1

[18] = target: Neu5Ac(a2-6)Gal(b1-4)GlcNAc(b1-2)[Neu5Ac(a2-6)Gal(b1-4)GlcNAc(b1-6)]Man(a1-6)[Neu5Ac(a2-6)Gal(b1-4)GlcNAc(b1-2)Man(a1-3)][GlcNAc(b1-4)]Man(b1-4)GlcNAc(b1-4)GlcNAc
How it was run: as §1

[19] = target: Neu5Ac(a2-6)Gal(b1-4)GlcNAc(b1-3)Gal(b1-3)GlcNAc
How it was run: as §1

[20] = target: Neu5Ac(a2-6)Gal(b1-4)GlcNAc(b1-3)Gal(b1-4)GlcNAc
How it was run: as §1

[21] = target: Neu5Ac(a2-6)Gal(b1-4)GlcNAc(b1-3)Gal(b1-4)GlcNAc(b1-2)Man(a1-3)[Neu5Ac(a2-6)Gal(b1-4)GlcNAc(b1-3)Gal(b1-4)GlcNAc(b1-2)Man(a1-6)]GalNAc
How it was run: as §1

[22] = target: Neu5Ac(a2-6)Gal(b1-4)GlcNAc(b1-3)Gal(b1-4)GlcNAc(b1-3)Gal(b1-4)GlcNAc
How it was run: as §1

[23] = target: Neu5Ac(a2-6)Gal(b1-4)GlcNAc(b1-3)Gal(b1-4)GlcNAc(b1-3)Gal(b1-4)GlcNAc(b1-2)Man(a1-3)[Neu5Ac(a2-6)Gal(b1-4)GlcNAc(b1-3)Gal(b1-4)GlcNAc(b1-3)Gal(b1-4)GlcNAc(b1-2)Man(a1-6)]GalNAc
How it was run: as §1

[24] = target: Neu5Ac(a2-6)Gal(b1-4)GlcNAc(b1-3)Gal(b1-4)GlcNAc(b1-3)GalNAc
How it was run: as §1

[25] = target: Neu5Ac(a2-6)Gal(b1-4)GlcNAc(b1-3)Gal(b1-4)GlcNAc(b1-3)[Neu5Ac(a2-6)Gal(b1-4)GlcNAc(b1-3)Gal(b1-4)GlcNAc(b1-6)]GalNAc
How it was run: as §1

[26] = target: Neu5Ac(a2-6)Gal(b1-4)GlcNAc(b1-3)Gal(b1-4)GlcNAc(b1-6)[Gal(b1-3)]GalNAc
How it was run: as §1

[27] = target: Neu5Ac(a2-6)Gal(b1-4)GlcNAc(b1-3)Gal(b1-4)[Fuc(a1-3)]GlcNAc(b1-3)Gal(b1-4)[Fuc(a1-3)]GlcNAc
How it was run: as §1

[28] = target: Neu5Ac(a2-6)Gal(b1-4)GlcNAc(b1-3)GalNAc
How it was run: as §1

[29] = target: Neu5Ac(a2-6)Gal(b1-4)GlcNAc(b1-3)[Neu5Ac(a2-6)Gal(b1-4)GlcNAc(b1-6)]GalNAc
How it was run: as §1

[30] = target: Neu5Ac(a2-6)Gal(b1-4)GlcNAc(b1-6)GalNAc
How it was run: as §1

[31] = target: Neu5Ac(a2-6)Gal(b1-4)GlcNAc(b1-6)[Gal(b1-3)GlcNAc(b1-3)]Gal(b1-4)Glc
How it was run: as §1

[32] = target: Neu5Ac(a2-6)Gal(b1-4)GlcNAc(b1-6)[Gal(b1-3)]GalNAc
How it was run: as §1

[33] = target: Neu5Ac(a2-6)Gal(b1-4)GlcNAc6S
How it was run: as §1

Neu5Ac(a2-6)GalNAc = target: Neu5Ac(a2-6)GalNAc
How it was run: as §1

[34] = target: Neu5Ac(a2-6)GalNAc(b1-4)GlcNAc
How it was run: as §1

[35] = target: Neu5Ac(a2-6)GalNAc(b1-4)GlcNAc6S
How it was run: as §1

[36] = target: Neu5Ac(a2-6)GlcNAc(b1-4)GlcNAc
How it was run: as §1

B1: Sp8391B-bot-388-20-388 (Bacteroides ovatus) (protein)
chain: GCQNNDENEQHYDNKLFISASNFTKEILFKAGDTNVETGLSVAIAKPEEHDIKVTMSPAPELLSTYKLAYYDETAVLLSEEHYSMPETSTTIKSGSIVSPELPIEFINTGELDIKTTYVLPVTIKSVEGIGVLQSAKTYYYVFRGASLINVVCNISRNRAYPDFKNDSKFNNLTENTMEILFKANSFPNTLNTLMGIESNYLLRIGDATIPNNQLQVATSVNNCTSADLQLESGKWYHVAVAFNKGNVKVYINGVEKLSGSTGKSSVSLGAKHTNEEDGSRCFWVGYSYKDDRYFDGVVSEVRIWNRALTAEEIQATNHFYTIEPESEGLIAYWKFDEGSGTVAKDYSVSGYDLTIEKEPKWESVSLPQ
[1]
  glycan array binding signal (z-score): 6.14
Neu5Ac(a2-6)Gal(b1-4)Glc
  glycan array binding signal (z-score): -0.12
[2]
  glycan array binding signal (z-score): -0.355
[3]
  glycan array binding signal (z-score): 0.49
[4]
  glycan array binding signal (z-score): -0.505
[5]
  glycan array binding signal (z-score): -0.496
[6]
  glycan array binding signal (z-score): -0.61
[7]
  glycan array binding signal (z-score): 0.048
[8]
  glycan array binding signal (z-score): -0.91
[9]
  glycan array binding signal (z-score): -0.382
[10]
  glycan array binding signal (z-score): 0.054
[11]
  glycan array binding signal (z-score): -0.262
[12]
  glycan array binding signal (z-score): -0.801
[13]
  glycan array binding signal (z-score): 0.613
[14]
  glycan array binding signal (z-score): -0.638
[15]
  glycan array binding signal (z-score): 0.075
[16]
  glycan array binding signal (z-score): 2.53
[17]
  glycan array binding signal (z-score): -0.474
[18]
  glycan array binding signal (z-score): -0.563
[19]
  glycan array binding signal (z-score): -0.346
[20]
  glycan array binding signal (z-score): -0.321
[21]
  glycan array binding signal (z-score): 0.609
[22]
  glycan array binding signal (z-score): -0.019
[23]
  glycan array binding signal (z-score): 1.56
[24]
  glycan array binding signal (z-score): -0.164
[25]
  glycan array binding signal (z-score): -0.372
[26]
  glycan array binding signal (z-score): -0.24
[27]
  glycan array binding signal (z-score): 0.703
[28]
  glycan array binding signal (z-score): -0.107
[29]
  glycan array binding signal (z-score): -0.507
[30]
  glycan array binding signal (z-score): 0.333
[31]
  glycan array binding signal (z-score): -0.328
[32]
  glycan array binding signal (z-score): -0.211
[33]
  glycan array binding signal (z-score): 1.55
Neu5Ac(a2-6)GalNAc
  glycan array binding signal (z-score): -0.776
[34]
  glycan array binding signal (z-score): 0.179
[35]
  glycan array binding signal (z-score): -0.019
[36]
  glycan array binding signal (z-score): -1.06
